Measured values: PubChem BioAssay AID1469 (National Center for Advancing Translational Sciences (NCATS), 2008)
“And” between values parts separate entries of the source, which are not always exact repeats. Equal entries are not always repeated. The whole screen tested about 280,000 compounds, of which about 180 (0.064%) were called active. This list was built around the results that the source calls inconclusive (neither active nor inactive); the mix of calls is not that of the screen. Calls follow the shape of the dose curve; as a rule, active = well fitted inhibition curve with a large enough effect; inconclusive = small, poorly fitted or top-dose-only effect, or effect the other way; inactive = flat fitted curve, though single readings scatter. Where the call is inconclusive, the potency comes from a doubtful curve fit.
Also: nearly all actives have a fitted effect of over 50% in size.
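For activity change, negative = inhibition in this document: plate controls were bound peptide for no effect and peptide without receptor for full effect.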
Potency is read from the fitted curve at half-maximal effect.

Sequences of proteins named here, by UniProt entry; tags and fusion partners are left off. A change or cut given only in a name is not applied to a line headed by its entry.
UniProt P10828: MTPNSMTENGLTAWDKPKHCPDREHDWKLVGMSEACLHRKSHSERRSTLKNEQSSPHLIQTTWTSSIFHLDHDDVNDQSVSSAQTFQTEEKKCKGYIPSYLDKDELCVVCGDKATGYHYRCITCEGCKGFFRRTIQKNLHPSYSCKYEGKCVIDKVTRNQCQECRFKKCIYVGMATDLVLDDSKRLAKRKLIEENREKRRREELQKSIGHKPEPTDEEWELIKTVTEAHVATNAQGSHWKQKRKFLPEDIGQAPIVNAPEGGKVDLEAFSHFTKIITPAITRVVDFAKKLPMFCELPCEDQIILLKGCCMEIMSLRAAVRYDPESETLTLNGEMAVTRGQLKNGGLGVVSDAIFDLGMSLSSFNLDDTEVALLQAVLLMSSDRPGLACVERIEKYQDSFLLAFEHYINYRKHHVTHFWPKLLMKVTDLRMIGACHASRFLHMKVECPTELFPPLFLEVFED

Each compound was assayed against Thyroid hormone receptor beta (Homo sapiens) (UniProt P10828) (assay: qHTS for Inhibitors of the Interaction of Thyroid Hormone Receptor and Steroid Receptor Coregulator 2). Details: TRbeta-SRC2 peptide binding, fluorescence polarization, receptor liganded with 1 µM T3; series mostly up to 106 µM; activity change, negative = inhibition: at the top concentration.
How it was run: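 A fluorescence polarization screen tested compounds at multiple concentrations against complex formation between 0.6 uM TRb ligand-binding domain and 20 nM Texas Red SRC2 peptide, with 1 uM T3 present; readout after 5 hr.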
CC1=CC(C)(C)N2C(=O)C(=Nc3ccc(O)cc3)c3cccc1c32 was tested, and the Potency was active: 35.5 µM. Cc1ccccc1OCCSc1nc(C)c(Cc2ccccc2)c(=O)[nH]1 was tested, and the Potency was inconclusive: 3.98 µM [inhibitor, partial curve]. For COCC(C)N1C(=O)Cc2c1nc(N)c1c(N)nc(N3CCN(c4ccccc4F)CC3)c(C#N)c21 (stereo unspecified), the Potency was inconclusive: 22.4 µM [inhibitor, full curve]. For COc1cc(NCCCC(C)N)c2ncccc2c1 (stereo unspecified), the Potency was active: 28.2 µM. For N#C/C(=C\Nc1ccc2cn[nH]c2c1)c1nc(-c2ccc(Cl)cc2)cs1, the Potency was active: 70.8 µM. With Cc1ccc(NC(=O)CSc2nc3nccnc3c(=O)n2CCc2c[nH]c3ccccc23)cc1 the Potency was inconclusive: 25.1 µM [activator, single point]. For O=C1C(=O)c2ncccc2-c2cccnc21, the Potency was inconclusive: 39.8 µM [inhibitor, partial curve]. In the case of O=C(O)c1cc(-c2ccc(/C=C3/SC(=S)N(Cc4ccccc4)C3=O)o2)ccc1Cl, the Potency was inconclusive: 70.8 µM [activator, single point]. Cc1ccc(NC(=O)c2cc3c([nH]c2=O)CC(C)(C)CC3=O)c(C)c1 was tested, and the “activity change, negative = inhibition” value was inactive: -5.21%. With COc1nc(-c2ccccc2)ccc1-c1noc(-c2ccccc2Br)n1 the Potency was inconclusive: 35.5 µM [inhibitor, single point]. With CCN1C(c2ccccc2)=C(c2ccccc2)S/C1=C/C=C1\SC(=S)N(C)C1=O the Potency was inconclusive: 1.41 µM [activator, full curve, poor fit]. With CCC(C)NC(=O)CSc1nc2c(sc3ccccc32)c(=O)n1CCc1ccc(OC)c(OC)c1 (stereo unspecified) the “activity change, negative = inhibition” value was inactive: 1.79%. Cc1ccc(-n2cc(CNCCn3nc(C)cc3C)c(-c3ccc(F)cc3)n2)cc1 was tested, and the Potency was inconclusive: 35.5 µM [inhibitor, single point]. O=[N+]([O-])c1ccc(O)c(Nc2ncnc3ccccc23)c1 was tested, and the “activity change, negative = inhibition” value was inactive: -3.23% [at 53 µM]. O=C(O)CN(CC(=O)O)Cc1cc2c(-c3ccccc3C(=O)O)c3cc(CN(CC(=O)O)CC(=O)O)c(=O)cc-3oc2cc1O was tested, and the Potency was active: 6.31 µM. With COc1cc2[nH]c3c(N4CCN(c5ccccn5)CC4)ncnc3c2cc1OC the “activity change, negative = inhibition” value was inactive: 2.66%. With COc1ccc(Nc2ccc(OC)cc2)cc1 the Potency was inconclusive: 28.2 µM [inhibitor, partial curve]. For Nc1cc(-c2ccncc2)c[nH]c1=O, the Potency was inconclusive: 14.1 µM [inhibitor, full curve] and inconclusive: 20 µM [inhibitor, full curve, poor fit]. For O=C(/C=C/Nc1ccccc1O)c1ccco1, the “activity change, negative = inhibition” value was inactive: 2.67%. For COc1ccccc1-c1nnc(SCC(=O)Nc2ccccc2)o1, the Potency was inconclusive: 200 µM [inhibitor, partial curve]. With Cc1ccccc1NS(=O)(=O)c1ccc(C2CNC(=O)C2)cc1 (stereo unspecified) the Potency was inconclusive: 0.0794 µM [inhibitor, full curve, poor fit]. Cc1ccc(NC(=S)NNC(=O)CSc2nc3ccccc3c(=O)n2-c2ccc(C)cc2)cc1 was tested, and the Potency was inconclusive: 50.1 µM [activator, single point]. With Brc1c(NC2=NCCN2)ccc2nccnc12 the Potency was “inactive”. In the case of Cc1cc(O)c(C=O)c2c1C(=O)Oc1c(COC(=O)/C=C/C(=O)O)c(O)c(C(=O)O)c(C)c1O2, the Potency was inconclusive: 31.6 µM [activator, partial curve]. Cc1cc(=O)n(CC(C)C)c(O)c1C#N was tested, and the Potency was inconclusive: 56.2 µM [inhibitor, partial curve, poor fit]. In the case of CN1\C(=C/C=C/C=C/C=[N+](C)C)C(C)(C)c2ccccc21, the Potency was inconclusive: 3.98 µM [activator, full curve]. CCN(CC)c1ccc(/C=C/C(=O)C2C(=O)C=C(C)OC2=O)cc1 (stereo unspecified) was tested, and the Potency was inconclusive: 20 µM [activator, full curve]. With Cc1cc(C)cc(-n2nnnc2SCC(=O)Nc2nc(-c3ccc(Cl)cc3)cs2)c1 the “activity change, negative = inhibition” value was inactive: 1.46%. O=[N+]([O-])c1ccc(-c2csc(Nc3ccccc3)[n+]2Cc2ccccc2)cc1 was tested, and the Potency was inconclusive: 0.0224 µM [inhibitor, full curve]. For COc1cc(C(c2c(C)[nH][nH]c2=O)c2c(C)[nH][nH]c2=O)ccc1OC(=O)c1cccc([N+](=O)[O-])c1, the Potency was inconclusive: 50.1 µM [inhibitor, single point]. Nc1c(N2CCOCC2)cc(Cl)c2nonc12 was tested, and the Potency was inconclusive: 50.1 µM [inhibitor, partial curve, poor fit]. In the case of C=C(C)C(=O)Nc1cccc(C2=NOC3(C2)C[C@@H](C(N)=O)N(C(=O)c2ccc(Cl)cc2)C3)c1 (stereo partly specified), the “activity change, negative = inhibition” value was inactive: 0.935%. In the case of CCCCOc1ccc(C(=O)NCCc2sc3nc(-c4ccc(OC)cc4)nn3c2C)cc1, the “activity change, negative = inhibition” value was inactive: -7.81%. Cc1ccc(C(=O)Nc2ccc(C(=O)O)cc2)cc1S(=O)(=O)N1CCC(C)CC1 was tested, and the Potency was inconclusive: 31.6 µM [inhibitor, single point]. In the case of Cc1ccc(Nc2nc3ccc(C(=O)c4ccccc4)cc3n3c(C)nnc23)c(C)c1, the Potency was inconclusive: 70.8 µM [activator, single point]. CC[N+]1=C(C)C(C)(C)c2cc(C)ccc21 was tested, and the Potency was inconclusive: 2.51 µM [activator, full curve]. For S=c1[nH]c2ccc3ccccc3c2[nH]1, the “activity change, negative = inhibition” value was inactive: -0.719%. With Cc1ccc(O)c(NC(=S)NC(=O)COc2ccc(Br)cc2)c1 the Potency was inconclusive: 70.8 µM [inhibitor, single point]. In the case of CCOC(=O)c1nc(NCc2ccccc2)c2ccccc2n1, the “activity change, negative = inhibition” value was inactive: -4.25%. O=C1N/C(=C\c2ccc(O)cc2)C(=O)c2ccccc21 was tested, and the Potency was inconclusive: 31.6 µM [inhibitor, full curve]. For O=C(O)c1c(Cl)c(Cl)c(Cl)c(Cl)c1-c1c2cc(I)c(=O)c(I)c-2oc2c(I)c(O)c(I)cc12, the Potency was active: 6.31 µM and active: 5.01 µM. In the case of Cc1ccc(CNC(=O)Cc2coc3cc(C)cc(C)c23)cc1, the Potency was inconclusive: 8.91 µM [activator, single point]. CCCSc1ncc(Cl)c(C(=O)Nc2sc3c(c2C(=O)NCCOC)CCCC3)n1 was tested, and the Potency was inconclusive: 0.141 µM [activator, partial curve, poor fit]. For COc1ccc(NC(=O)c2cc(-c3ccco3)nc3ccccc23)cc1S(=O)(=O)N1CCOCC1, the “activity change, negative = inhibition” value was inactive: 4.87%. In the case of COc1ccccc1N(O)C1CC(=O)N(c2ccc(F)cc2)C1=O (stereo unspecified), the Potency was inconclusive: 70.8 µM [inhibitor, single point]. In the case of COc1ccccc1C(=O)NNC(=O)CCCN1C(=O)/C(=C/c2cccs2)SC1=S, the Potency was inconclusive: 70.8 µM [inhibitor, single point]. In the case of CCOC(=O)c1ccc(NS(=O)(=O)c2cc(-c3onc(C)c3C)ccc2C)cc1, the “activity change, negative = inhibition” value was inactive: -4.74%. For N#C/C(=C\C1=C(N2CCOCC2)C(=C\c2ccc(Cl)cc2)/CC1)C(=O)Nc1ccccc1F, the Potency was active: 39.8 µM. COc1cccc(/C=N/n2c(C)nc3ccccc32)c1OC was tested, and the “activity change, negative = inhibition” value was inactive: 9.14%. O=C(COC(=O)c1ccc(S(=O)(=O)N2CCOCC2)cc1)Nc1nc(-c2ccccc2)cs1 was tested, and the Potency was inconclusive: 14.1 µM [inhibitor, full curve, poor fit]. For Cn1c(=O)cc2c3c(c(N4CCCCC4)ccc31)C(=O)c1ccccc1-2, the Potency was inconclusive: 11.2 µM [inhibitor, partial curve]. For Cc1ccc(-c2nc(C=Nc3ccc(O)cc3)c(O)o2)cc1, the Potency was inconclusive: 31.6 µM [inhibitor, full curve]. COn1c2c(c3c4nonc4ccc31)CCCC2 was tested, and the Potency was inconclusive: 28.2 µM [inhibitor, full curve]. In the case of CCC(=O)Nc1c2c(nn1-c1ccccc1C)CSC2, the Potency was inconclusive: 20 µM [inhibitor, full curve]. COc1cc2cc3c4c(cc(OC)c(OC)c4c2cc1OC)CCN3C was tested, and the Potency was inconclusive: 6.31 µM [inhibitor, full curve]. O=C(CSc1nc(O)cc(=O)[nH]1)Nc1ccc2c(c1)CCC2 was tested, and the Potency was inconclusive: 44.7 µM [activator, partial curve]. N=C1/C(=C/c2coc3ccccc3c2=O)C(=O)N=C2SC(c3ccco3)=NN12 was tested, and the Potency was inconclusive: 50.1 µM [activator, partial curve]. In the case of Cc1ccc(C)c2[nH]c(=O)c(C(c3nnnn3Cc3ccco3)N3CCc4ccccc4C3)cc12 (stereo unspecified), the Potency was inconclusive: 79.4 µM [inhibitor, single point]. N#Cc1c(NC(=O)CSc2nnc(-c3ccco3)n2-c2ccccc2)sc2c1CCC2 was tested, and the Potency was inconclusive: 31.6 µM [inhibitor, single point]. With CCOc1cc(C(c2c(C)[nH][nH]c2=O)c2c(C)[nH][nH]c2=O)ccc1OC(=O)c1cccc([N+](=O)[O-])c1 the Potency was inconclusive: 70.8 µM [inhibitor, partial curve]. N#Cc1c(N)sc(=S)c2c1CCN(Cc1ccccc1)C2 was tested, and the Potency was inconclusive: 50.1 µM [inhibitor, partial curve]. Cc1c(Cl)cccc1NS(=O)(=O)c1ccc(-c2cnc(C3CC3)o2)cc1 was tested, and the “activity change, negative = inhibition” value was inactive: 10.5%. In the case of C=CCn1c(=O)/c(=C/c2ccc(C)o2)s/c1=C(/C#N)C(=O)c1ccccc1, the Potency was inconclusive: 50.1 µM [activator, partial curve, poor fit]. With O=C(O)c1cccc(N/N=C/c2cccs2)c1 the “activity change, negative = inhibition” value was inactive: -5.49%. With CCCCCSc1nc2sc3c(c2c(=O)n1-c1ccc(OC)cc1)CCN(C(C)=O)C3 the Potency was inconclusive: 7.94 µM [activator, single point]. With Cc1ccc(NC(=O)/C(C#N)=C/c2ccc(C)s2)c(C)c1 the Potency was inconclusive: 70.8 µM [inhibitor, single point].
